Reference: the supplement of paper PMC8728848
The list shows a part of the results.

Tests used:
Assay in all cases: glycan array binding signal (z-score within array); higher = stronger binding
Conditions in all cases: glycan notation: IUPAC condensed, linker removed
[1] = target: Gal(b1-4)GlcNAc(b1-3)Gal(b1-4)GlcNAc(b1-3)Gal(b1-4)GlcNAc(b1-3)Gal(b1-4)GlcNAc(b1-2)Man(a1-3)[Gal(b1-4)GlcNAc(b1-3)Gal(b1-4)GlcNAc(b1-3)Gal(b1-4)GlcNAc(b1-3)Gal(b1-4)GlcNAc(b1-2)Man(a1-6)]Man(b1-4)GlcNAc(b1-4)GlcNAc
How it was run: (§1)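 The binding signal is a Z-score computed within each array and averaged over linkers. Arrays of the same protein sequence at different concentrations or buffers were also averaged together. Data originate from 3228 arrays in the Consortium for Functional Glycomics database, kept only where the protein sequence was available.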

[2] = target: Gal(b1-4)GlcNAc(b1-3)Gal(b1-4)GlcNAc(b1-3)Gal(b1-4)GlcNAc(b1-3)Gal(b1-4)GlcNAc(b1-2)Man(a1-3)[Gal(b1-4)GlcNAc(b1-3)Gal(b1-4)GlcNAc(b1-3)Gal(b1-4)GlcNAc(b1-3)Gal(b1-4)GlcNAc(b1-2)Man(a1-6)]Man(b1-4)GlcNAc(b1-4)[Fuc(a1-6)]GlcNAc
How it was run: as §1

[3] = target: Gal(b1-4)GlcNAc(b1-3)Gal(b1-4)GlcNAc(b1-3)Gal(b1-4)GlcNAc(b1-3)Gal(b1-4)GlcNAc(b1-2)[Gal(b1-4)GlcNAc(b1-3)Gal(b1-4)GlcNAc(b1-3)Gal(b1-4)GlcNAc(b1-3)Gal(b1-4)GlcNAc(b1-6)]Man(a1-6)[Gal(b1-4)GlcNAc(b1-3)Gal(b1-4)GlcNAc(b1-3)Gal(b1-4)GlcNAc(b1-3)Gal(b1-4)GlcNAc(b1-2)Man(a1-3)]Man(b1-4)GlcNAc(b1-4)[Fuc(a1-6)]GlcNAc
How it was run: as §1

[4] = target: Gal(b1-4)GlcNAc(b1-3)Gal(b1-4)GlcNAc(b1-3)Gal(b1-4)GlcNAc(b1-3)Gal(b1-4)GlcNAc(b1-3)Gal(b1-4)GlcNAc(b1-2)Man(a1-3)[Gal(b1-4)GlcNAc(b1-3)Gal(b1-4)GlcNAc(b1-3)Gal(b1-4)GlcNAc(b1-3)Gal(b1-4)GlcNAc(b1-3)Gal(b1-4)GlcNAc(b1-2)Man(a1-6)]Man(b1-4)GlcNAc(b1-4)GlcNAc
How it was run: as §1

[5] = target: Gal(b1-4)GlcNAc(b1-3)Gal(b1-4)GlcNAc(b1-3)Gal(b1-4)GlcNAc(b1-3)Gal(b1-4)GlcNAc(b1-3)Gal(b1-4)GlcNAc(b1-2)Man(a1-3)[Gal(b1-4)GlcNAc(b1-3)Gal(b1-4)GlcNAc(b1-3)Gal(b1-4)GlcNAc(b1-3)Gal(b1-4)GlcNAc(b1-3)Gal(b1-4)GlcNAc(b1-2)Man(a1-6)]Man(b1-4)GlcNAc(b1-4)[Fuc(a1-6)]GlcNAc
How it was run: as §1

[6] = target: Gal(b1-4)GlcNAc(b1-3)Gal(b1-4)GlcNAc(b1-3)Gal(b1-4)GlcNAc(b1-3)Gal(b1-4)GlcNAc(b1-3)Gal(b1-4)GlcNAc(b1-2)[Gal(b1-4)GlcNAc(b1-3)Gal(b1-4)GlcNAc(b1-3)Gal(b1-4)GlcNAc(b1-3)Gal(b1-4)GlcNAc(b1-3)Gal(b1-4)GlcNAc(b1-6)]Man(a1-6)[Gal(b1-4)GlcNAc(b1-3)Gal(b1-4)GlcNAc(b1-3)Gal(b1-4)GlcNAc(b1-3)Gal(b1-4)GlcNAc(b1-3)Gal(b1-4)GlcNAc(b1-2)Man(a1-3)]Man(b1-4)GlcNAc(b1-4)[Fuc(a1-6)]GlcNAc
How it was run: as §1

[7] = target: Gal(b1-4)GlcNAc(b1-3)Gal(b1-4)GlcNAc(b1-3)Gal(b1-4)GlcNAc(b1-3)Gal(b1-4)GlcNAc(b1-3)Gal(b1-4)GlcNAc(b1-3)Gal(b1-4)GlcNAc(b1-2)Man(a1-3)[Gal(b1-4)GlcNAc(b1-3)Gal(b1-4)GlcNAc(b1-3)Gal(b1-4)GlcNAc(b1-3)Gal(b1-4)GlcNAc(b1-3)Gal(b1-4)GlcNAc(b1-3)Gal(b1-4)GlcNAc(b1-2)Man(a1-6)]Man(b1-4)GlcNAc(b1-4)GlcNAc
How it was run: as §1

[8] = target: Gal(b1-4)GlcNAc(b1-3)Gal(b1-4)GlcNAc(b1-3)GalNAc
How it was run: as §1

[9] = target: Gal(b1-4)GlcNAc(b1-3)Gal(b1-4)GlcNAc(b1-3)[Gal(b1-4)GlcNAc(b1-3)Gal(b1-4)GlcNAc(b1-6)]GalNAc
How it was run: as §1

[10] = target: Gal(b1-4)GlcNAc(b1-3)Gal(b1-4)GlcNAc(b1-6)[Gal(b1-3)]GalNAc
How it was run: as §1

[11] = target: Gal(b1-4)GlcNAc(b1-3)Gal(b1-4)[Fuc(a1-3)]GlcNAc(b1-3)Gal(b1-4)[Fuc(a1-3)]GlcNAc
How it was run: as §1

[12] = target: Gal(b1-4)GlcNAc(b1-3)GalNAc
How it was run: as §1

[13] = target: Gal(b1-4)GlcNAc(b1-3)[Fuc(a1-3)GlcNAc(b1-6)]Gal(b1-4)Glc
How it was run: as §1

[14] = target: Gal(b1-4)GlcNAc(b1-3)[Gal(b1-4)GlcNAc(b1-6)]Gal(b1-4)GlcNAc
How it was run: as §1

[15] = target: Gal(b1-4)GlcNAc(b1-3)[GlcNAc(b1-6)]Gal(b1-4)GlcNAc
How it was run: as §1

[16] = target: Gal(b1-4)GlcNAc(b1-6)Gal(b1-4)GlcNAc
How it was run: as §1

[17] = target: Gal(b1-4)GlcNAc(b1-6)GalNAc
How it was run: as §1

[18] = target: Gal(b1-4)GlcNAc(b1-6)[Gal(b1-3)]GalNAc
How it was run: as §1

[19] = target: Gal(b1-4)GlcNAc(b1-6)[Gal(b1-4)GlcNAc(b1-3)]GalNAc
How it was run: as §1

Gal(b1-4)GlcNAc6P = target: Gal(b1-4)GlcNAc6P
How it was run: as §1

Gal(b1-6)Gal = target: Gal(b1-6)Gal
How it was run: as §1

Gal3S(b1-3)GalNAc = target: Gal3S(b1-3)GalNAc
How it was run: as §1

Gal3S(b1-3)GlcNAc = target: Gal3S(b1-3)GlcNAc
How it was run: as §1

B1: AFL6 (Aspergillus fumigatus), Q4WKJ1 (protein)
chain: MSFHLTAEDIRIEDGHRLVARLRNADGDLQDASIDLNTCLGNDNGHFQWDGVDFSHSAQDVHFAIEGGGQVPVLRAQLANQDGEFQDADVNLSERIENINGEFVFH
- glycan array binding signal (z-score) [1]: 1.12
- glycan array binding signal (z-score) [2]: 2.99
- glycan array binding signal (z-score) [3]: 1.23
- glycan array binding signal (z-score) [4]: 1.16
- glycan array binding signal (z-score) [5]: 0.612
- glycan array binding signal (z-score) [6]: 1.35
- glycan array binding signal (z-score) [7]: 0.978
- glycan array binding signal (z-score) [8]: 0.845
- glycan array binding signal (z-score) [9]: 4.09
- glycan array binding signal (z-score) [10]: 0.866
- glycan array binding signal (z-score) [11]: 0.241
- glycan array binding signal (z-score) [12]: -0.442
- glycan array binding signal (z-score) [13]: -0.272
- glycan array binding signal (z-score) [14]: -0.388
- glycan array binding signal (z-score) [15]: -0.687
- glycan array binding signal (z-score) [16]: -0.693
- glycan array binding signal (z-score) [17]: 0.156
- glycan array binding signal (z-score) [18]: -0.275
- glycan array binding signal (z-score) [19]: 0.337
- glycan array binding signal (z-score) (Gal(b1-4)GlcNAc6P): -0.065
- glycan array binding signal (z-score) (Gal(b1-6)Gal): 0.135
- glycan array binding signal (z-score) (Gal3S(b1-3)GalNAc): -0.743
- glycan array binding signal (z-score) (Gal3S(b1-3)GlcNAc): -0.074
